Test results as given in article PMC8346560.
Construct, isoform or probe ends are uncertain for at least one entry.

Assays:
[1] = system: Dpb3 + Dpb4; assay: EMSA; settings: 0-20 pmol protein, 1.5 pmol DNA in 50 uL, one shifted band, 20 mM HEPES-NaOH pH 7.5, 0.5 mM EDTA, 0.05% NP-40, 10% glycerol, 60 ug/mL BSA, no added salt stated, on ice 10 min, recombinant protein, protein details: C-terminal Strep-tag,C-terminal 6xHis, label: 32P
[2] = system: Dls1 + Dpb4; assay: EMSA; settings: 0-160 pmol protein, 1.5 pmol DNA in 50 uL, one shifted band, 20 mM HEPES-NaOH pH 7.5, 0.5 mM EDTA, 0.05% NP-40, 10% glycerol, 60 ug/mL BSA, no added salt …, on ice 10 min, recombinant protein, protein details: C-terminal Strep-tag,C-terminal 6xHis, label: 32P

## GACGCTGCCGAATTCTACCAGTGCCTTGCTAGGACATCTTTGCCCACCTGCAGGTTCACCC (double strand) [61-mer dsDNA]
[1]
  binding result: binds
[2]
  binding result: binds
